Reference: the supplement of paper PMC11348887
Counter-ions that a name gives are not always drawn. Some of the results follow. Most values lie at the level of the controls, where differences are scatter.

Tested on: hPSC-derived cortical neurons (WA09)
Test: total neurite length per nucleus (MAP2) z-score; higher = more neurite growth
Conditions: 5 µM; treatment: days 7-14 after plating, readout day 21

**Q.** Which “total neurite length per nucleus (z-score)” value does the source give for Cc1coc2c1C(=O)C(=O)c1c-2ccc2c1CCCC2(C)C [Tanshinone IIA] here?
**A.** Its value is 0.0321.

**Q.** How did the “total neurite length per nucleus (z-score)” value turn out when Cc1ccc2nc(CN(CCN(Cc3nc4ccc(C)cc4[nH]3)Cc3nc4ccc(C)cc4[nH]3)Cc3nc4ccc(C)cc4[nH]3)[nH]c2c1 was run?
**A.** Its value is -6.32.

**Q.** CC(C)[C@H](N)C(=O)OCC(CO)OCn1cnc2c(=O)[nH]c(N)nc21 (stereo not given in full) [Valganciclovir HCl] was tested. Which “total neurite length per nucleus (z-score)” value did it give?
**A.** Its value is -0.425.

**Q.** CN(C)CC/C=C1/c2ccccc2Sc2ccc(Cl)cc21 [Chlorprothixene] was tested. Which “total neurite length per nucleus (z-score)” value did it give?
**A.** The value was -0.247.

**Q.** How did the “total neurite length per nucleus (z-score)” value turn out when CCOC(N)=O [Urethane] was run?
**A.** Its value is -2.89.

**Q.** For O=C(NCc1ccncc1)C12CC3CC(C1)CC(c1ccc(Cl)cc1)(C3)C2, which “total neurite length per nucleus (z-score)” value is on record?
**A.** The value was -0.596.

**Q.** Which “total neurite length per nucleus (z-score)” value does the source give for N[C@@H]1CONC1=O [D-Cycloserine] here?
**A.** Its value is -0.827.

**Q.** Which “total neurite length per nucleus (z-score)” value does the source give for O=S(=O)(O)CCSSCCS(=O)(=O)O [Dimesna] here?
**A.** Its value is 0.322.

**Q.** With Cc1cn(-c2cc(NC(=O)c3ccc(C)c(Nc4nccc(-c5cnccn5)n4)c3)cc(C(F)(F)F)c2)cn1 [Radotinib] as the compound, how does the “total neurite length per nucleus (z-score)” value read?
**A.** The value was 0.0116.

**Q.** With Cc1cc(O)c2c(c1)C(=O)c1cccc(O)c1C2=O [Chrysophanic Acid] as the compound, how does the “total neurite length per nucleus (z-score)” value read?
**A.** The value was 0.102.

**Q.** For O=C(/C=C/c1ccc(O)c(O)c1)c1ccc(O)cc1O [Butein], which “total neurite length per nucleus (z-score)” value is on record?
**A.** The value was -0.398.

**Q.** NC(=O)Nc1cc(-c2cccc(F)c2)sc1C(=O)N[C@H]1CCCNC1 was tested. Which “total neurite length per nucleus (z-score)” value did it give?
**A.** The value was 2.13.

**Q.** With CN1CCN(CCCN2c3ccccc3Sc3ccc(Cl)cc32)CC1 [Prochlorperazine dimaleate salt] as the compound, how does the “total neurite length per nucleus (z-score)” value read?
**A.** Its value is -5.07.

**Q.** How did the “total neurite length per nucleus (z-score)” value turn out when CCCCCCCCOc1ccccc1C(=O)Nc1ccc(C(=O)OCC[N+](C)(CC)CC)cc1 [Otilonium Bromide] was run?
**A.** The value was -0.739.

**Q.** Which “total neurite length per nucleus (z-score)” value does the source give for COc1cc([C@@H]2c3cc4c(cc3[C@@H](O[C@@H]3O[C@@H]5CO[C@@H](C)O[C@H]5[C@H](O)[C@H]3O)[C@H]3COC(=O)[C@H]23)OCO4)cc(OC)c1O [Etoposide] here?
**A.** Its value is 0.651.

**Q.** Which “total neurite length per nucleus (z-score)” value does the source give for O=C1NCCCc2c1oc1ccc(O)cc21 here?
**A.** The value was 0.592.

**Q.** How did the “total neurite length per nucleus (z-score)” value turn out when CN[C@@H](C)C(=O)N[C@H](C(=O)N1CCC[C@H]1C(=O)Nc1snnc1-c1ccccc1)C1CCCCC1 was run?
**A.** Its value is -0.119.

**Q.** How did the “total neurite length per nucleus (z-score)” value turn out when CC1=CC(=O)c2ccccc2C1=O [Menadione] was run?
**A.** The value was -0.37.

**Q.** With CCCN1CCCC[C@H]1C(=O)Nc1c(C)cccc1C [Ropivacaine HCl] as the compound, how does the “total neurite length per nucleus (z-score)” value read?
**A.** The value was -0.032.

**Q.** For N#CC1(c2ccc(NC(=O)c3cccnc3NCc3ccncc3)cc2)CCCC1 [Apatinib], which “total neurite length per nucleus (z-score)” value is on record?
**A.** Its value is 0.463.

**Q.** With CC(C)[N+]1(C)[C@@H]2CC[C@H]1C[C@@H](OC(=O)C(CO)c1ccccc1)C2 (stereo not given in full) [Ipratropium Bromide] as the compound, how does the “total neurite length per nucleus (z-score)” value read?
**A.** The value was -0.772.

**Q.** COCCCOc1cc(C[C@@H](C[C@H](N)[C@@H](O)C[C@H](C(=O)NCC(C)(C)C(N)=O)C(C)C)C(C)C)ccc1OC [Aliskiren Hemifumarate] was tested. Which “total neurite length per nucleus (z-score)” value did it give?
**A.** The value was 0.529.

**Q.** For O=C(N[C@H](CO)[C@H](O)c1ccc([N+](=O)[O-])cc1)C(Cl)Cl [Chloramphenicol], which “total neurite length per nucleus (z-score)” value is on record?
**A.** The value was -0.644.

**Q.** How did the “total neurite length per nucleus (z-score)” value turn out when CCCCC1C(=O)N(c2ccccc2)N(c2ccccc2)C1=O [Phenylbutazone] was run?
**A.** Its value is 0.268.

**Q.** CCN[C@H]1CN(CCCOC)S(=O)(=O)c2sc(S(N)(=O)=O)cc21 [Brinzolamide] was tested. Which “total neurite length per nucleus (z-score)” value did it give?
**A.** Its value is -0.194.

**Q.** O=C(O)CC1CC(c2ccccc2)=NO1 (stereo not given) was tested. Which “total neurite length per nucleus (z-score)” value did it give?
**A.** The value was 0.737.

**Q.** For CN(C)CCCN1c2ccccc2CCc2ccc(Cl)cc21 [Clomipramine HCl], which “total neurite length per nucleus (z-score)” value is on record?
**A.** The value was -2.65.

**Q.** How did the “total neurite length per nucleus (z-score)” value turn out when COc1cc(OC)c2c(=O)[nH]c(-c3cc(C)c(OCCO)c(C)c3)nc2c1 was run?
**A.** The value was -0.296.

**Q.** CC(=O)N1CCN(CCOc2ccc(C3CCN(C4=Nn5c(nnc5C(F)(F)F)CC4)CC3)cc2)CC1 was tested. Which “total neurite length per nucleus (z-score)” value did it give?
**A.** The value was -0.699.

**Q.** For CCCCCCCCCCC[C@@H](C[C@@H]1OC(=O)[C@H]1CCCCCC)OC(=O)[C@H](CC(C)C)NC=O [Orlistat], which “total neurite length per nucleus (z-score)” value is on record?
**A.** The value was -0.16.

**Q.** With CCN(CC)CCNC(=O)c1c(C)[nH]c(/C=C2\C(=O)Nc3ccc(F)cc32)c1C [Sunitinib] as the compound, how does the “total neurite length per nucleus (z-score)” value read?
**A.** Its value is -1.04.

**Q.** With CC[C@@H]1C(=O)N(C)c2cnc(Nc3ccc(C(=O)N[C@H]4CC[C@H](N5CCN(CC6CC6)CC5)CC4)cc3OC)nc2N1C(C)C [Volasertib (BI 6727)] as the compound, how does the “total neurite length per nucleus (z-score)” value read?
**A.** Its value is -2.2.

**Q.** With CCN1CCN(Cc2ccc(Nc3ncc(F)c(-c4cc(F)c5nc(C)n(C(C)C)c5c4)n3)nc2)CC1 as the compound, how does the “total neurite length per nucleus (z-score)” value read?
**A.** Its value is -4.66.

**Q.** COC(=O)N[C@H](C(=O)N[C@@H](Cc1ccccc1)[C@@H](O)CN(Cc1ccc(-c2ccccn2)cc1)NC(=O)[C@@H](NC(=O)OC)C(C)(C)C)C(C)(C)C [Atazanavir Sulfate] was tested. Which “total neurite length per nucleus (z-score)” value did it give?
**A.** Its value is 0.647.

**Q.** With COC(=O)C1=CO[C@@H](O)[C@@H]2C(CO)=CC[C@H]12 [Genipin] as the compound, how does the “total neurite length per nucleus (z-score)” value read?
**A.** Its value is 1.21.

**Q.** With CC1(C)Cc2c(-c3ccccc3)c(-c3ccc(Cl)cc3)c(CC(=O)O)n2C1 [Licofelone] as the compound, how does the “total neurite length per nucleus (z-score)” value read?
**A.** Its value is -0.571.

**Q.** For OC(CNCC(O)C1CCc2cc(F)ccc2O1)C1CCc2cc(F)ccc2O1 (stereo not given) [Nebivolol], which “total neurite length per nucleus (z-score)” value is on record?
**A.** The value was -0.903.

**Q.** How did the “total neurite length per nucleus (z-score)” value turn out when CCN(CC)CCCC(C)Nc1c2ccc(Cl)cc2nc2ccc(OC)cc12 (stereo not given) [Quinacrine 2HCl] was run?
**A.** The value was -1.56.

**Q.** With OCc1cc(C(O)CNCCCCCCOCCCCc2ccccc2)ccc1O (stereo not given) [Salmeterol Xinafoate] as the compound, how does the “total neurite length per nucleus (z-score)” value read?
**A.** The value was -0.543.

**Q.** How did the “total neurite length per nucleus (z-score)” value turn out when CNC(=O)c1cc(Oc2ccc(NC(=O)Nc3ccc(Cl)c(C(F)(F)F)c3)cc2)ccn1 [Sorafenib] was run?
**A.** Its value is -1.04.
